From PMC4686657 come the findings set out here.

The chains behind the UniProt entries cited, without tags or fusion partners.
UniProt O35261: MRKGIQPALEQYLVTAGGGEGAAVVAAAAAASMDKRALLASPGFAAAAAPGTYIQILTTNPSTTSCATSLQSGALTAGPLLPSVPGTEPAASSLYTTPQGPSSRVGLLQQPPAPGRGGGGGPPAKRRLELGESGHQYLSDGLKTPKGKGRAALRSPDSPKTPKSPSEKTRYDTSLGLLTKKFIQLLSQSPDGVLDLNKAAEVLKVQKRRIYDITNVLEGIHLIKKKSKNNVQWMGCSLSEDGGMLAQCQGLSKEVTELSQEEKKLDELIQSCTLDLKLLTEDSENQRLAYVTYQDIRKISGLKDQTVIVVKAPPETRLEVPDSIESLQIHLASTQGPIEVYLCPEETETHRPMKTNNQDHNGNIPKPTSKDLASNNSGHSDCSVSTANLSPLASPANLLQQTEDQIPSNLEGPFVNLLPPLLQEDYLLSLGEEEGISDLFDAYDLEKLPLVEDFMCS
UniProt Q61501: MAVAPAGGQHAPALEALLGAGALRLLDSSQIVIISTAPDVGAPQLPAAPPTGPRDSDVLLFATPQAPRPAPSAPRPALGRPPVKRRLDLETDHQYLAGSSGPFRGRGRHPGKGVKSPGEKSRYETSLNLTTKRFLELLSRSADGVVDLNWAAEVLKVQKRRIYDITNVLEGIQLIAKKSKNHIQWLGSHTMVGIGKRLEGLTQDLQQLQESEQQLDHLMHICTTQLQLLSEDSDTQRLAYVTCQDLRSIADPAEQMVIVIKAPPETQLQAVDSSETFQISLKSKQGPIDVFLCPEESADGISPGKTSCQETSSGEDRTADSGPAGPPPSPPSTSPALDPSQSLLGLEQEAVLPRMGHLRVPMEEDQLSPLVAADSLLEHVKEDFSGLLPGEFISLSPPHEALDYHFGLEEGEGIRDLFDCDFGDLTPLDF
UniProt Q9WTM5: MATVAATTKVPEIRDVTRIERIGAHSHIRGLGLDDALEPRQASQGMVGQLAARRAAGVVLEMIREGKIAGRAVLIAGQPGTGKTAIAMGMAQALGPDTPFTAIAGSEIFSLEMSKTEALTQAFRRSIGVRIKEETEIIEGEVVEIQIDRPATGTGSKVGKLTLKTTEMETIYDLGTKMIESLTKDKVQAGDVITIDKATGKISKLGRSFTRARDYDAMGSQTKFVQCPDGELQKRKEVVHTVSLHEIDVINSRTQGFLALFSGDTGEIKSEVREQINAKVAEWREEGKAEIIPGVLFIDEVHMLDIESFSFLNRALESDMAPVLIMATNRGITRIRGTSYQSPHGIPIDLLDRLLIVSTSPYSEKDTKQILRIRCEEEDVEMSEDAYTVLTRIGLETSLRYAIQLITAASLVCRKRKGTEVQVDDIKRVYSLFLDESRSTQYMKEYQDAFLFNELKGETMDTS
UniProt P60122: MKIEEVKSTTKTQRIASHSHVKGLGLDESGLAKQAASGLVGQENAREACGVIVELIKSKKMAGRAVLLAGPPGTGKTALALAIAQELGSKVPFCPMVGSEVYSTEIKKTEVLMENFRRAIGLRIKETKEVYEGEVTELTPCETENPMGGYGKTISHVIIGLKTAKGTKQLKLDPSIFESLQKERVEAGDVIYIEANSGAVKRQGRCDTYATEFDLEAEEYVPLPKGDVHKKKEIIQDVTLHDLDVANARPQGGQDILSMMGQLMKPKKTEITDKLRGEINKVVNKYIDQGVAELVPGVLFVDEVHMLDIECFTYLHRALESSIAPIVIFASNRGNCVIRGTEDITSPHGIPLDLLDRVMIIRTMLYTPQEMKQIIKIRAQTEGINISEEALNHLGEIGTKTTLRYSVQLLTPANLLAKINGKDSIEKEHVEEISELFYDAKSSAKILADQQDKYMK

These are yes or no findings as the source states them, for the method shown. In cells and extracts the contact can be indirect. Here binding means that the protein was enriched with, or labelled near, the bait; the list need not be complete. For part of these data: A no says only that the protein was not detected with the bait.

Assay [1] deals with E2f3 (mouse (endogenous in TKO HCC cells)) (UniProt O35261). The assay can be described thus: affinity purification with mass spectrometry; endogenous E2f1 and E2f3 immunoprecipitated from TKO HCC cell lysates (HEPES lysis buffer, Protein A Sepharose, 4 °C); SDS-PAGE slices, trypsin, LC-MS/MS; n=3.
In assay [2] the target is E2f1 (mouse (endogenous in TKO HCC cells)) (UniProt Q61501). The description is as above.

For the molecule Reptin (from UniProt Q9WTM5 1-463), the binding result is “no binding” in assay [1] and “binds” in assay [2].
In the case of Pontin (from UniProt P60122 1-456), the binding entry is given as “no binding” in assay [1] and “binds” in assay [2].

B1: Dp1 (protein, UniProt Q08639 1-410)
chain: MAKDASLIEANGELKVFIDQNLSPGKGVVSLVAVHPSTVNTLGKQLLPKTFGQSNVNITQQVVIGTPQRPAASNTIVVGSPHTPNTHFVSQNQTSDSSPWSAGKRNRKGEKNGKGLRHFSMKVCEKVQRKGTTSYNEVADELVAEFSAADNHILPNESAYDQKNIRRRVYDALNVLMAMNIISKEKKEIKWIGLPTNSAQECQNLEVERQRRLERIKQKQSQLQELILQQIAFKNLVQRNRQAEQQARRPPPPNSVIHLPFIIVNTSRKTVIDCSISNDKFEYLFNFDNTFEIHDDIEVLKRMGMACGLESGNCSAEDLKVARSLVPKALEPYVTEMAQGSIGGVFVTTTGSTSNGTRLSASDLSNGADGMLATSSNGSQYSGSRVETPVSYVGEDDDDDDDFNENDEED
B1: the binding result in assay [1] and in assay [2] was “binds” each time.
